From PubChem BioAssay AID248 (DTP/NCI, 2004)
The list does not hold the whole screen: it gathers tests that were run many times, whatever their T/C, doses with no T/C, and many T/C values between a quarter and a half above the control. Further doses and runs are listed elsewhere. T/C is the treated group as % of the vehicle group. Some doses have a count of surviving animals in place of a T/C: the source files T/C as zero there, which appears to mark a toxic dose or a test without result, not a measured value. Some doses without a T/C left all or most animals alive at the check, yet need not have been tolerated: the source hardly ever lists a survival T/C far under the control, and the zero likely stands for such cases as well. Counts of survivors are from the toxicity check (mostly the fifth day) where no day follows; animals may have died later. Schedule codes are those of the source, read here as Q, the interval in days (D) or hours (H), X, the number of doses.

System: L1210 leukemia ip in BDF1 mice, survival T/C
Assay: NCI In Vivo Anticancer Drug Screen. Data for tumor model L1210 Leukemia (intraperitoneal) in B6D2F1 (BDF1) mice
Conditions: T/C endpoint: mean survival time, higher T/C = longer survival
[1] = dose: 400.0 mg/kg/injection, schedule: Q04DX003 (ip), vehicle: saline with Tween-80

CCC(C)(CO)N=Cc1ccccc1O.CCC(C)(O)/N=C/c1ccccc1O.[Cu].[Cu] (configuration not stated)
survivor count (dose: 75.0 mg/kg/injection, schedule: Q01DX001 (ip), vehicle: other): 3 of 6
survivor count (dose: 150.0 mg/kg/injection, schedule: Q01DX001 (ip), vehicle: other): 0 of 6
survivor count (dose: 300.0 mg/kg/injection, schedule: Q01DX001 (ip), vehicle: other): 0 of 6

CC(Cc1ccccc1)NC(C#N)c1ccccc1 (configuration not stated)
survivor count (dose: 100.0 mg/kg/injection, schedule: Q04DX003 (ip), vehicle: saline with Tween-80): 3 of 6
survivor count (dose: 200.0 mg/kg/injection, schedule: Q01DX009 (ip), vehicle: Klucel (hydroxypropylcellulose) (HPC)): 1 of 6
survivor count (dose: 200.0 mg/kg/injection, schedule: Q04DX003 (ip), vehicle: saline with Tween-80): 5 of 6
survivor count (dose: 400.0 mg/kg/injection, schedule: Q04DX003 (ip), vehicle: Klucel (hydroxypropylcellulose) (HPC)): 0 of 4
survivor count [1]: 1 of 6

CCN(CC)Cc1cc(Nc2nc(/C=C/c3ccc(Cl)cc3)nc(Cl)c2-c2ccc(Cl)cc2)ccc1O
survivor count (dose: 100.0 mg/kg/injection, schedule: Q01DX001 (ip), vehicle: saline): 6 of 6
survivor count (dose: 200.0 mg/kg/injection, schedule: Q01DX001 (ip), vehicle: saline): 6 of 6
survivor count (dose: 400.0 mg/kg/injection, schedule: Q01DX001 (ip), vehicle: saline): 6 of 6

N\C([S-])=N/N=C\C(=N/N=C(\N)[S-])C(O)C(O)C(O)CO.[Pt+2] (configuration not stated)
survivor count (dose: 100.0 mg/kg/injection, schedule: Q01DX009 (ip), vehicle: saline): 6 of 6

O=C(NCNC(=O)c1ccccc1)c1ccccc1
survivor count (dose: 100.0 mg/kg/injection, schedule: Q01DX009 (ip), vehicle: Klucel (hydroxypropylcellulose) (HPC)): 6 of 6

CC1(NC(=O)N(CCCl)N=O)CCCC1
survivor count (dose: 375.0 mg/kg/injection, schedule: Q01DX001 (ip), vehicle: carboxymethylcellulose (CMC)): 6 of 6
survivor count (dose: 500.0 mg/kg/injection, schedule: Q01DX001 (ip), vehicle: carboxymethylcellulose (CMC)): 6 of 6
survivor count (dose: 750.0 mg/kg/injection, schedule: Q01DX001 (ip), vehicle: carboxymethylcellulose (CMC)): 6 of 6

[O-][n+]1ccnc(C(Cl)(Cl)Cl)c1Cl
survivor count (dose: 6.25 mg/kg/injection, schedule: Q01DX009 (ip), vehicle: other): 2 of 3
survivor count (dose: 12.5 mg/kg/injection, schedule: Q01DX009 (ip), vehicle: other): 0 of 3
survivor count (dose: 25.0 mg/kg/injection, schedule: Q01DX009 (ip), vehicle: other): 0 of 3
survivor count (dose: 50.0 mg/kg/injection, schedule: Q01DX009 (ip), vehicle: other): 0 of 3
survivor count (dose: 100.0 mg/kg/injection, schedule: Q01DX009 (ip), vehicle: other): 0 of 3
survivor count (dose: 200.0 mg/kg/injection, schedule: Q01DX009 (ip), vehicle: other): 0 of 3

[Cl][Pd][Cl].[NH-]C1CCCCC1.[NH-]C1CCCCC1
survivor count (dose: 200.0 mg/kg/injection, schedule: Q04DX002 (ip), vehicle: Klucel (hydroxypropylcellulose) (HPC)): 0 of 3
survivor count (dose: 400.0 mg/kg/injection, schedule: Q04DX002 (ip), vehicle: Klucel (hydroxypropylcellulose) (HPC)): 0 of 3

CN1C2CCC1CC(OC(=O)c1ccccc1)C2 (configuration not stated)
survivor count (dose: 200.0 mg/kg/injection, schedule: Q04DX002 (ip), vehicle: saline with Tween-80): 3 of 6

COc1cc2c(c(Cl)c1N)-c1ccccc1C2
survivor count (dose: 400.0 mg/kg/injection, schedule: Q01DX001 (ip), vehicle: carboxymethylcellulose (CMC)): 3 of 6
survivor count (dose: 600.0 mg/kg/injection, schedule: Q01DX001 (ip), vehicle: carboxymethylcellulose (CMC)): 4 of 6

CCCCSP(=S)(OCC)OCC
survivor count [1]: 0 of 6

CCOP(N)(=O)SC (configuration not stated)
survivor count (dose: 10.0 mg/kg/injection, schedule: Q01DX001 (ip), vehicle: saline): 0 of 6
survivor count (dose: 20.0 mg/kg/injection, schedule: Q01DX001 (ip), vehicle: saline): 0 of 6
survivor count (dose: 40.0 mg/kg/injection, schedule: Q01DX001 (ip), vehicle: saline): 0 of 6
survivor count (dose: 75.0 mg/kg/injection, schedule: Q01DX001 (ip), vehicle: saline): 0 of 6
survivor count (dose: 80.0 mg/kg/injection, schedule: Q01DX001 (ip), vehicle: saline): 0 of 6
survivor count (dose: 150.0 mg/kg/injection, schedule: Q01DX001 (ip), vehicle: saline): 0 of 6
survivor count (dose: 300.0 mg/kg/injection, schedule: Q01DX001 (ip), vehicle: saline): 0 of 6

O=C1OC(=C(c2ccccc2)c2ccccc2)c2ccccc21
survivor count (dose: 400.0 mg/kg/injection, schedule: Q01DX009 (ip), vehicle: saline): 6 of 6

CC1(C)C2CCC1(C(=O)O)C(=O)C2 (configuration not stated)
survivor count (dose: 400.0 mg/kg/injection, schedule: Q01DX009 (ip), vehicle: saline with Tween-80): 5 of 6
